Data: US20250243233A1, “BIOBASED SURFACTANTS” (ECOLE POLYTECHNIQUE FEDERALE DE LAUSANNE (EPFL), priority 2022, published 2025)
Some results were stated once for a whole list of compounds, not compound by compound.

Assay: Emulsion stability measurements (water/cyclohexane emulsions, bright-field microscope)
Format: physicochemical
Conditions: 1 ml water + 2 ml cyclohexane containing surfactant at 0.1%, vortex 30 s, FIG. 1b and 1c
Method: The emulsions were prepared by mixing 1 ml of water (with 1 mg/ml of Acian blue dye) and 2 ml cyclohexane containing 3,5-O-dodecylidene-xylose or 2-((dodecyloxy)methyl) tetrahydrofuran-3,4-diol) at a concentration of 0.1% and then mixed by vortex for 30 s.
Emulsions were characterized using a bright-field microscope (Leitz Ergolux) during the storage after preparation. […] Besides, a water/oil emulsion (67% water and 33% cyclohexane) containing 1% 3,5-O-dodecylidene-xylose was kept for about 1 year to observe its possible destablization.

Question: With `CCCCCCCCCCCCOCC1OCC(O)C1O` (stereo not shown) [2-((dodecyloxy)methyl)tetrahydrofuran-3,4-diol] as the compound, how does the “time aqueous bubbles in oil phase maintain stable without obvious coalescence” value read?
Answer: at least 30 days
